Results are given in words; binding and its absence hold for the method and conditions named. Some results given as binding are weak or reduced against the parent protein; the word gives no strength.
Target: T1, human LOXL2 (full length enzyme) (human, UniProt Q9Y4K0 26-774)
T1 construct: also called lysyl-oxidase like protein-2
T1 sequence: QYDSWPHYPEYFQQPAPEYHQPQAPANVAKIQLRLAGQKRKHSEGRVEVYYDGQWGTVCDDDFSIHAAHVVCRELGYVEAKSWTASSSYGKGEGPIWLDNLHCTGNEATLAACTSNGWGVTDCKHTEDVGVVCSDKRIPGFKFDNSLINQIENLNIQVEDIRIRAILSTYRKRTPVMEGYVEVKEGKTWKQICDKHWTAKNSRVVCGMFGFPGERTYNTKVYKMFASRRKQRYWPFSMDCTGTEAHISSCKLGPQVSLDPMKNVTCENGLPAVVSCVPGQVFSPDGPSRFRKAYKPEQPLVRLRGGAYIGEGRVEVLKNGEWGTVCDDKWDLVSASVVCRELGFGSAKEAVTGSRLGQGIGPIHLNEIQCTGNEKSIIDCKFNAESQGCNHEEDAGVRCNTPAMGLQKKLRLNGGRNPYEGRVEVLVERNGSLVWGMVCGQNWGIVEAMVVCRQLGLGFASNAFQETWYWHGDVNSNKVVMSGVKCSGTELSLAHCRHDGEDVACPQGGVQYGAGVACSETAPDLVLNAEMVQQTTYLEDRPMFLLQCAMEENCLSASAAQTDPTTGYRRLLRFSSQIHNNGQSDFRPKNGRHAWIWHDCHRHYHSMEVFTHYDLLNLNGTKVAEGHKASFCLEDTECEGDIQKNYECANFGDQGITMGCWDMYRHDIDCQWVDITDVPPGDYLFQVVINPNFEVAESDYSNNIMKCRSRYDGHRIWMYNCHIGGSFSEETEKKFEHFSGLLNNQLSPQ
Test: microscale thermophoresis in solution; x axis printed as [LOXL2], nM; LOXL2 construct not specified on the sheet or in the legend

B1: GS341 antibody (antibody, V domains shown)
VH: QVQLQQPGAELVRPGASVKLSCKASGYSFTNYWMSWVKQRPGQGLEWIGMIHPSDTDIRLHQKFKDKATLTVDKSSSTAYVQLSSPTSEDSAVYYCARGGQLGPWFAYWGQGTLVTVSA
VL: DIVMTQSPASLAVSLGQRATISCRASKSVSTSGYSYMHWYQQKPGQPPKLLIYLASNLESGVPARFSGSGSGTFTLNIHPVEEEDAATYYCQHSRELPWTFGGGTKLEIKR
notes: also called A341; ab341
Question: B1 was tested. Which binding did it give?
Answer: Its binding is “binds”.

From patent US20170210823A1 (YEDA RESEARCH AND DEVELOPMENT, published 2017)
